# Laboratory results as given in the supplement of paper PMC8728848.
# Some of the results follow.
# What was measured:
# Test in all cases: glycan array binding signal (z-score within array); higher = stronger binding
# Settings in all cases: glycan notation: IUPAC condensed, linker removed
# [1] = biological target: Neu5Ac(a2-3)Gal(b1-4)GlcNAc(b1-6)GalNAc
# Method in brief: (§1)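 Glycan array binding is given as a within-array Z-score, which can be read as non-binding when negative. The arrays, 3228 of them, came from the Consortium for Functional Glycomics database and were retained only where the protein sequence was available. Z-scores were averaged across arrays of the same protein sequence at different concentrations or buffers and across linkers.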
# [2] = biological target: Neu5Ac(a2-3)Gal(b1-4)GlcNAc(b1-6)[Gal(b1-3)]GalNAc
# Method in brief: as §1
# [3] = biological target: Neu5Ac(a2-3)Gal(b1-4)GlcNAc(b1-6)[Neu5Ac(a2-3)Gal(b1-3)]GalNAc
# Method in brief: as §1
# [4] = biological target: Neu5Ac(a2-3)Gal(b1-4)GlcNAc6S
# Method in brief: as §1
# [5] = biological target: Neu5Ac(a2-3)Gal(b1-4)[Fuc(a1-3)]GlcNAc
# Method in brief: as §1
# [6] = biological target: Neu5Ac(a2-3)Gal(b1-4)[Fuc(a1-3)]GlcNAc(b1-2)Man
# Method in brief: as §1
# [7] = biological target: Neu5Ac(a2-3)Gal(b1-4)[Fuc(a1-3)]GlcNAc(b1-3)Gal
# Method in brief: as §1
# [8] = biological target: Neu5Ac(a2-3)Gal(b1-4)[Fuc(a1-3)]GlcNAc(b1-3)Gal(b1-4)GlcNAc
# Method in brief: as §1
# [9] = biological target: Neu5Ac(a2-3)Gal(b1-4)[Fuc(a1-3)]GlcNAc(b1-3)Gal(b1-4)[Fuc(a1-3)]GlcNAc(b1-3)Gal(b1-4)[Fuc(a1-3)]GlcNAc
# Method in brief: as §1
# [10] = biological target: Neu5Ac(a2-3)Gal(b1-4)[Fuc(a1-3)]GlcNAc(b1-3)GalNAc
# Method in brief: as §1
# [11] = biological target: Neu5Ac(a2-3)Gal(b1-4)[Fuc(a1-3)]GlcNAc(b1-6)[Gal(b1-3)]GalNAc
# Method in brief: as §1
# [12] = biological target: Neu5Ac(a2-3)Gal(b1-4)[Fuc(a1-3)]GlcNAc(b1-6)[Neu5Ac(a2-3)Gal(b1-3)]GalNAc
# Method in brief: as §1
# [13] = biological target: Neu5Ac(a2-3)Gal(b1-4)[Fuc(a1-3)]GlcNAc6S
# Method in brief: as §1
# [14] = biological target: Neu5Ac(a2-3)Gal6S(b1-4)GlcNAc
# Method in brief: as §1
# [15] = biological target: Neu5Ac(a2-3)Gal6S(b1-4)[Fuc(a1-3)]GlcNAc
# Method in brief: as §1
# Neu5Ac(a2-3)GalNAc = biological target: Neu5Ac(a2-3)GalNAc
# Method in brief: as §1
# [16] = biological target: Neu5Ac(a2-3)GalNAc(b1-4)GlcNAc
# Method in brief: as §1
# [17] = biological target: Neu5Ac(a2-3)[GalNAc(b1-4)]Gal(b1-4)Glc
# Method in brief: as §1
# [18] = biological target: Neu5Ac(a2-3)[GalNAc(b1-4)]Gal(b1-4)GlcNAc
# Method in brief: as §1
# [19] = biological target: Neu5Ac(a2-3)[GalNAc(b1-4)]Gal(b1-4)GlcNAc(b1-3)GalNAc
# Method in brief: as §1
# [20] = biological target: Neu5Ac(a2-3)[Neu5Ac(a2-6)]GalNAc
# Method in brief: as §1
# Neu5Ac(a2-6)Gal = biological target: Neu5Ac(a2-6)Gal
# Method in brief: as §1
# [21] = biological target: Neu5Ac(a2-6)Gal(b1-3)GlcNAc(b1-3)[Gal(b1-4)GlcNAc(b1-6)]Gal(b1-4)Glc
# Method in brief: as §1
# Neu5Ac(a2-6)Gal(b1-4)Glc = biological target: Neu5Ac(a2-6)Gal(b1-4)Glc
# Method in brief: as §1
# [22] = biological target: Neu5Ac(a2-6)Gal(b1-4)GlcNAc
# Method in brief: as §1
# [23] = biological target: Neu5Ac(a2-6)Gal(b1-4)GlcNAc(b1-2)Man
# Method in brief: as §1
# [24] = biological target: Neu5Ac(a2-6)Gal(b1-4)GlcNAc(b1-2)Man(a1-3)Man(b1-4)GlcNAc(b1-4)GlcNAc
# Method in brief: as §1
# [25] = biological target: Neu5Ac(a2-6)Gal(b1-4)GlcNAc(b1-2)Man(a1-3)[Gal(b1-4)GlcNAc(b1-2)Man(a1-6)]Man(b1-4)GlcNAc(b1-4)GlcNAc
# Method in brief: as §1
# [26] = biological target: Neu5Ac(a2-6)Gal(b1-4)GlcNAc(b1-2)Man(a1-3)[GlcNAc(b1-2)Man(a1-6)]Man(b1-4)GlcNAc(b1-4)GlcNAc
# Method in brief: as §1
# [27] = biological target: Neu5Ac(a2-6)Gal(b1-4)GlcNAc(b1-2)Man(a1-3)[GlcNAc(b1-4)][Neu5Ac(a2-6)Gal(b1-4)GlcNAc(b1-2)Man(a1-6)]Man(b1-4)GlcNAc(b1-4)GlcNAc
# Method in brief: as §1
binder,measurement,setting,value
PX14343F-bfa-562-20-562 (Bacteroides fragilis) (protein) CDDFLDSFPQDTVTNENFWKSKEDADKVLVDIYASLLPKDAIFFDEAMSDNAYLVWDWWGGAQQVANGSYTTSGEIPTNRWNGSYEVIRKCWFLLEGIEKIEDISEQDKNKIIGETYFMLAYNYYVLTSYFGDVPLVTKTLAIPESKQLVRTPKAEVVDYAINKLKEAAVMLEGLSQEKGRVTADACRFLIARMYLYNGDYSNVLETVKLLEGKYQLYREGDTPYEDLFSGVAENSCEVILSVVCDKRVGEIYTSHGGNGIMLLKGITGEDPYRGVTPSGSLVDAYPMADGRLIHEAGSSYDPKKPYEGRDPRFYQSIVYPTGQIKYLDVETGTVKERLYDPEDPTTVPEHQYNYSQPSATGYMWNKYIDYSVYAMNSVWDCTNDIIVFRYADVLLMKAEALLQTKGESAKEEVCNLIDQLRDRCSCGRVHRENYNSKDELMELLKNERRIELANEGLRYMDLIRWKDAEKNTIVTGVGLTGQMYGAYMRKDGVGKDDKTVDVDNTPRRYIETRYFNASKGYLFPIPQKERDLNPNLTQNPNW,glycan array binding signal (z-score),[1],-0.639
same,glycan array binding signal (z-score),[2],-0.723
same,glycan array binding signal (z-score),[3],0.33
same,glycan array binding signal (z-score),[4],-0.149
same,glycan array binding signal (z-score),[5],-0.377
same,glycan array binding signal (z-score),[6],-0.79
same,glycan array binding signal (z-score),[7],-0.528
same,glycan array binding signal (z-score),[8],0.262
same,glycan array binding signal (z-score),[9],-0.664
same,glycan array binding signal (z-score),[10],0.296
same,glycan array binding signal (z-score),[11],0.551
same,glycan array binding signal (z-score),[12],-0.025
same,glycan array binding signal (z-score),[13],-0.045
same,glycan array binding signal (z-score),[14],1.17
same,glycan array binding signal (z-score),[15],-0.633
same,glycan array binding signal (z-score),Neu5Ac(a2-3)GalNAc,0.272
same,glycan array binding signal (z-score),[16],-0.105
same,glycan array binding signal (z-score),[17],-0.734
same,glycan array binding signal (z-score),[18],-0.587
same,glycan array binding signal (z-score),[19],0.078
same,glycan array binding signal (z-score),[20],0.574
same,glycan array binding signal (z-score),Neu5Ac(a2-6)Gal,0.129
same,glycan array binding signal (z-score),[21],-0.366
same,glycan array binding signal (z-score),Neu5Ac(a2-6)Gal(b1-4)Glc,-0.402
same,glycan array binding signal (z-score),[22],-0.468
same,glycan array binding signal (z-score),[23],1.04
same,glycan array binding signal (z-score),[24],-0.203
same,glycan array binding signal (z-score),[25],-0.29
same,glycan array binding signal (z-score),[26],0.095
same,glycan array binding signal (z-score),[27],-0.203

# For reference, some entries already given.
binder,measurement,setting,value
PX14343F-bfa-562-20-562 (Bacteroides fragilis) (protein) CDDFLDSFPQDTVTNENFWKSKEDADKVLVDIYASLLPKDAIFFDEAMSDNAYLVWDWWGGAQQVANGSYTTSGEIPTNRWNGSYEVIRKCWFLLEGIEKIEDISEQDKNKIIGETYFMLAYNYYVLTSYFGDVPLVTKTLAIPESKQLVRTPKAEVVDYAINKLKEAAVMLEGLSQEKGRVTADACRFLIARMYLYNGDYSNVLETVKLLEGKYQLYREGDTPYEDLFSGVAENSCEVILSVVCDKRVGEIYTSHGGNGIMLLKGITGEDPYRGVTPSGSLVDAYPMADGRLIHEAGSSYDPKKPYEGRDPRFYQSIVYPTGQIKYLDVETGTVKERLYDPEDPTTVPEHQYNYSQPSATGYMWNKYIDYSVYAMNSVWDCTNDIIVFRYADVLLMKAEALLQTKGESAKEEVCNLIDQLRDRCSCGRVHRENYNSKDELMELLKNERRIELANEGLRYMDLIRWKDAEKNTIVTGVGLTGQMYGAYMRKDGVGKDDKTVDVDNTPRRYIETRYFNASKGYLFPIPQKERDLNPNLTQNPNW,glycan array binding signal (z-score),[17],-0.734
same,glycan array binding signal (z-score),[18],-0.587
